From PMC6001661 come the findings set out here.

These are yes or no findings as the source states them, for the method shown. Binding can be weak; no strength is given. Where a sequence is shown, tags or fusion partners need not be part of it. For part of these data: In cells and extracts the contact can be indirect.

Test [1] concerns the target T1, HA-OsTrx1 (rice (Oryza sativa)) (UniProt Q6K431).
T1 sequence: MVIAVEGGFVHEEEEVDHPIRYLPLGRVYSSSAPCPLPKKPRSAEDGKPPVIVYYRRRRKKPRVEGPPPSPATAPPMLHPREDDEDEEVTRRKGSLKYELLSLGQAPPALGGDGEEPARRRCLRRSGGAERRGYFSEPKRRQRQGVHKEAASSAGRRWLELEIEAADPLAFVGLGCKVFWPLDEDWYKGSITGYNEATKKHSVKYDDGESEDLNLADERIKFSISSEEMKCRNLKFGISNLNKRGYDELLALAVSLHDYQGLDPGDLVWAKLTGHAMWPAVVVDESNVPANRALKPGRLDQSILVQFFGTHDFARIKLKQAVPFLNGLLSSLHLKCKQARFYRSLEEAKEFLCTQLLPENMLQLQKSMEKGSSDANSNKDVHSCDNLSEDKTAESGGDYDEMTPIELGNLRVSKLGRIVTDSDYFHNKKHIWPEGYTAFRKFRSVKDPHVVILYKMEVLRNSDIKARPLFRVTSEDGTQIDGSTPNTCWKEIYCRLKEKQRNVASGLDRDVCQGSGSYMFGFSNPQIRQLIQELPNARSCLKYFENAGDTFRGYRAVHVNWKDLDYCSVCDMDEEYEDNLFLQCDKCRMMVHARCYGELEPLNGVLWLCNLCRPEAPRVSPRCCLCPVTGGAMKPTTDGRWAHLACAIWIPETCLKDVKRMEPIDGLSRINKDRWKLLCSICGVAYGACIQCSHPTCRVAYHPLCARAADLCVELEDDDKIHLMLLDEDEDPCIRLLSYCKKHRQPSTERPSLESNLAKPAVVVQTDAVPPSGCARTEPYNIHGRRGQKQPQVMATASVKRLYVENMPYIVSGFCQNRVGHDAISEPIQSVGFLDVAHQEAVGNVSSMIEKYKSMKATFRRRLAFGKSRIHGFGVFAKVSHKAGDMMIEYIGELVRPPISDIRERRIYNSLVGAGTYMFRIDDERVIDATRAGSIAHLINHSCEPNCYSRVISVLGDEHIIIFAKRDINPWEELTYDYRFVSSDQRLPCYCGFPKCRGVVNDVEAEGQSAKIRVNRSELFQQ
Nature of the test: co-IP; rice protoplasts co-transformed; lysed in PEN-140 buffer, precipitated with anti-HA and Protein G beads, five washes with PEN-400 (400 mM NaCl); immunoblot with anti-FLAG and anti-HA.

The target in test [2] is T2, OsTrx1-YFP^N (OsTrx1 fused with the N-terminal half of yellow fluorescent protein) (rice (Oryza sativa)) (UniProt Q6K431).
T2 sequence: T1 sequence
Nature of the test: split reporter; BiFC in rice protoplasts co-transformed with pUC-SPYNE (YFP 1-155) and pUC-SPYCE (YFP 156-239) fusions; confocal microscopy.

For test [3], the target named is T3, OsTrx1 fused with a binding domain (BD), from pGBKT7-OsTrx1 (rice (Oryza sativa)) (UniProt Q6K431).
T3 sequence: T1 sequence
Nature of the test: two-hybrid; directed test: pGBKT7-OsTrx1, pGBKT7-OsTrx1N or pGBKT7-OsTrx1C co-transformed with pGADT7-SIP1 in AH109; growth on synthetic defined medium lacking Trp, Leu, His and adenine.

For FLAG-SIP1 (rice (Oryza sativa)), the binding entry in test [1] is recorded as “binds”.

On to “full-length SIP1-YFP^C (SIP1 fused with the C-terminal half of YFP) (rice (Oryza sativa))”, for which the binding entry in test [2] is recorded as “binds”.

“full-length SIP1 fused with AD, from pGADT7-SIP1 (rice (Oryza sativa))”: the binding entry in test [3] is “binds”.
